The test system of data set [1] is alcohol-dependent adults and non-dependent problem drinkers. The experiment in a line: Human Study 1: intranasal oxytocin, stress and alcohol-related cues. It counts as in vivo. The note with it: versus placebo. As for the experimental part:
The underlying mechanisms of intranasal oxytocin during exposure to stress and alcohol related cues in adult alcohol-dependent and adult non-dependent problem drinkers are determined.
In particular, at least twenty male and female adults reporting alcohol dependence according to the Diagnostic and Statistical Manual of Mental Disorders, Fourth Edition (DSM-IV) as determined by the Structured Clinical Interview for the DSM-IV (SCID-IV) are recruited from the community to participate in a laboratory based investigation on the role of oxytocin in stress-related alcohol craving. All alcohol-dependent participants have a current diagnosis of alcohol dependence according to the SCID-IV, score higher than 8 on the Alcohol Use Disorders Identification Test (AUDIT), and score at least 10 on the Impaired Control Questionnaire (ICQ).
An additional twenty male and female non-dependent adults are recruited that score higher than 8 on the Alcohol Use Disorders Identification Test (AUDIT).
Recruited subjects are administered placebo or oxytocin intranasally (80 IU per day: 40 IU at 9:00 am and 40 IU at 9:00 pm) over a period of 7 days, following completion of baseline measurements. Subjects are instructed on self-administration procedures. Drug administration commences on the evening of the day of the clinical and medical interview and ceases on a morning one-week later, after 14 doses have been administered. Subjects are randomized to oxytocin-receiving or placebo-receiving groups, and the groups are stratified according to gender, age, and drinking behavior.
Subjects returning to the Brain and Mind Research Institute on the afternoon of the final day of testing are evaluated. Bloods and saliva are taken, and plasma oxytocin and cortisol levels and saliva cortisol are determined and compared to baseline levels before commencement of therapy. A urine toxicology test and alcohol breathalyzer test are also performed, to determine whether subjects have been alcohol-free and drug-free at the time of testing. Subjects are tested according to DASS-21, PANAS, 7-day TLFB, and AUQ, and neuropsychological evaluations e.g., according to CANTAB are performed. Changes in mood, drinking behavior and neuropsychology are evaluated for both groups by comparison with baseline evaluations. Changes in smoking behavior are evaluated by FTND testing and comparison with baseline evaluations. HR and BP records over the period and at cessation are also determined and compared to baseline levels before commencement of therapy.
Subjects also perform an impromptu speech task that is known to induce anxiety, to confirm the anxiolytic action of oxytocin therapy. In particular, subjects deliver a 5-minute speech on a widely-publicized topic familiar to most people e.g., climate change, which they have been misinformed previously is to be delivered by teleconference to a live audience. […] To assess changes in affect, alcohol craving, and physiology following the speech task, participants are subjected to a second round of PANAS, AUQ, and saliva cortisol testing, and their heart rates and blood pressures are determined.
Following the speech task, participants are presented with alcohol-related cues. […] Following exposure to the alcohol cues, participants are subjected to a third round of PANAS, AUQ, and saliva cortisol testing, and their heart rates and blood pressures are determined. […]

For data set [2] the test system is unchanged. The experiment in a line: Human Study 2: intranasal oxytocin, alcohol self-administration. Format: in vivo. The settings on record: intranasal 80 IU per day for 7 days, versus placebo. As for the experimental part: In a second clinical study in humans, the effect(s) of intranasal oxytocin therapy on alcohol self-administration are determined in a population of alcohol-dependent adults and in a population of non-dependent problem drinkers.
At least forty male and female adults are recruited from the community to the Brain and Mind Research Institute (BMRI) to participate in a laboratory based investigation looking at the impact of oxytocin on alcohol craving. Participants have a current diagnosis of alcohol dependence according to the Diagnostic and Statistical Manual of Mental Disorders, Fourth Edition (DSM-IV) as determined by the Structured Clinical Interview for the DSM-IV (SCID-IV) or are non-dependent subjects scoring higher than 8 on AUDIT. Male and female participants are chronic hazardous drinkers consuming more than 20 (females) or 25 (males) standard drinks per week (i.e., females: more than 200 g alcohol per week; males more than 250 g alcohol per week), respectively, and have not been abstinent more than 3 days per week in the 30 days preceding commencement of the trial as determined by AUDIT. […]
Subjects returning to the BMRI on the afternoon of the final day of testing are evaluated. […] Changes in mood, drinking behavior and neuropsychology are evaluated for both groups by comparison with baseline evaluations. […]

Where [3] appears, read: during presentation of stress and alcohol cues.
[4] abbreviates: intranasal 80 IU per day for 7 days.

This note sets out measurements from US9119805B2, “Therapy and prevention of problem drinking” (THE UNIVERSITY OF SYDNEY, priority 2009, dated 2015).

Each structure is given as a SMILES string.

`CC[C@H](C)[C@@H]1NC(=O)[C@H](Cc2ccc(O)cc2)NC(=O)[C@@H](N)CSSC[C@@H](C(=O)N2CCC[C@H]2C(=O)N[C@@H](CC(C)C)C(=O)NCC(N)=O)NC(=O)[C@H](CC(N)=O)NC(=O)[C@H](CCC(N)=O)NC1=O` [oxytocin]: in data set [1] (setting [3]), the arterial blood pressure result is recorded as “lower”, the heart rate result is “lower” and the salivary cortisol result is on record as “lower”. In addition, in data set [1] (setting [4]), the plasma cortisol levels result is reported as “lower” and the plasma oxytocin entry is “higher”. Moreover, in data set [2], the plasma cortisol levels entry is on record as “lower” and the plasma oxytocin levels entry is recorded as “higher”.
